The supplement of paper PMC8728848
The list shows a part of the results.

Key:
Experiment in all cases: glycan array binding signal (z-score within array); higher = stronger binding
Details in all cases: glycan notation: IUPAC condensed, linker removed
[1] = molecular target: Gal(a1-3)Gal(b1-4)GlcNAc(b1-2)Man
Outline: (§1)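 From the Consortium for Functional Glycomics database, 3228 arrays were curated, keeping only those whose protein sequence was available. Binding is given as a within-array Z-score averaged across arrays sharing a protein sequence and across linkers. Negative Z-scores can be read as non-binding.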

[2] = molecular target: Gal(a1-3)Gal(b1-4)GlcNAc(b1-2)Man(a1-3)[Gal(a1-3)Gal(b1-4)GlcNAc(b1-2)Man(a1-6)]Man(b1-4)GlcNAc(b1-4)GlcNAc
Outline: as §1

[3] = molecular target: Gal(a1-3)Gal(b1-4)GlcNAc(b1-3)GalNAc
Outline: as §1

[4] = molecular target: Gal(a1-3)Gal(b1-4)GlcNAc(b1-6)GalNAc
Outline: as §1

[5] = molecular target: Gal(a1-3)Gal(b1-4)[Fuc(a1-3)]GlcNAc
Outline: as §1

[6] = molecular target: Gal(a1-3)Gal(b1-4)[Fuc(a1-3)]GlcNAc(b1-2)Man(a1-3)[Gal(a1-3)Gal(b1-4)[Fuc(a1-3)]GlcNAc(b1-2)Man(a1-6)]Man(b1-4)GlcNAc(b1-4)GlcNAc
Outline: as §1

[7] = molecular target: Gal(a1-3)GalNAc
Outline: as §1

[8] = molecular target: Gal(a1-3)[Gal(a1-4)]Gal(b1-4)GlcNAc
Outline: as §1

[9] = molecular target: Gal(a1-4)Gal(b1-3)GlcNAc(b1-2)Man(a1-3)[Gal(a1-4)Gal(b1-3)GlcNAc(b1-2)Man(a1-6)]Man(b1-4)GlcNAc(b1-4)GlcNAc
Outline: as §1

[10] = molecular target: Gal(a1-4)Gal(b1-4)Glc
Outline: as §1

[11] = molecular target: Gal(a1-4)Gal(b1-4)GlcNAc
Outline: as §1

[12] = molecular target: Gal(a1-4)Gal(b1-4)GlcNAc(b1-2)Man(a1-3)[Gal(a1-4)Gal(b1-4)GlcNAc(b1-2)Man(a1-6)]Man(b1-4)GlcNAc(b1-4)GlcNAc
Outline: as §1

[13] = molecular target: Gal(a1-4)Gal(b1-4)GlcNAc(b1-3)Gal(b1-4)Glc
Outline: as §1

[14] = molecular target: Gal(a1-4)GlcNAc
Outline: as §1

[15] = molecular target: Gal(a1-6)Glc
Outline: as §1

[16] = molecular target: Gal(b1-2)Gal
Outline: as §1

[17] = molecular target: Gal(b1-3)Gal
Outline: as §1

[18] = molecular target: Gal(b1-3)Gal(b1-4)GlcNAc
Outline: as §1

[19] = molecular target: Gal(b1-3)GalNAc
Outline: as §1

[20] = molecular target: Gal(b1-3)GalNAc(a1-3)[Fuc(a1-2)]Gal(b1-4)Glc
Outline: as §1

[21] = molecular target: Gal(b1-3)GalNAc(a1-3)[Fuc(a1-2)]Gal(b1-4)GlcNAc
Outline: as §1

[22] = molecular target: Gal(b1-3)GalNAc(b1-3)Gal
Outline: as §1

[23] = molecular target: Gal(b1-3)GalNAc(b1-3)Gal(a1-4)Gal(b1-4)Glc
Outline: as §1

[24] = molecular target: Gal(b1-3)GalNAc(b1-4)Gal(b1-4)Glc
Outline: as §1

[25] = molecular target: Gal(b1-3)GalNAc(b1-4)[Neu5Ac(a2-3)]Gal(b1-4)Glc
Outline: as §1

[26] = molecular target: Gal(b1-3)GlcNAc
Outline: as §1

[27] = molecular target: Gal(b1-3)GlcNAc(a1-3)Gal(b1-4)GlcNAc
Outline: as §1

[28] = molecular target: Gal(b1-3)GlcNAc(a1-6)Gal(b1-4)GlcNAc
Outline: as §1

[29] = molecular target: Gal(b1-3)GlcNAc(b1-2)Man
Outline: as §1

[30] = molecular target: Gal(b1-3)GlcNAc(b1-2)Man(a1-3)[Gal(b1-3)GlcNAc(b1-2)Man(a1-6)]Man(b1-4)GlcNAc(b1-4)GlcNAc
Outline: as §1

[31] = molecular target: Gal(b1-3)GlcNAc(b1-2)Man(a1-3)[Gal(b1-3)GlcNAc(b1-2)Man(a1-6)]Man(b1-4)GlcNAc(b1-4)[Fuc(a1-6)]GlcNAc
Outline: as §1

[32] = molecular target: Gal(b1-3)GlcNAc(b1-2)Man(a1-3)[GlcNAc(b1-4)][Gal(b1-3)GlcNAc(b1-2)Man(a1-6)]Man(b1-4)GlcNAc(b1-4)GlcNAc
Outline: as §1

[33] = molecular target: Gal(b1-3)GlcNAc(b1-2)[Gal(b1-3)GlcNAc(b1-6)]Man(a1-6)[Gal(b1-3)GlcNAc(b1-2)Man(a1-3)]Man(b1-4)GlcNAc(b1-4)GlcNAc
Outline: as §1

[34] = molecular target: Gal(b1-3)GlcNAc(b1-3)Gal(b1-3)GlcNAc
Outline: as §1

[35] = molecular target: Gal(b1-3)GlcNAc(b1-3)Gal(b1-4)Glc
Outline: as §1

[36] = molecular target: Gal(b1-3)GlcNAc(b1-3)Gal(b1-4)GlcNAc
Outline: as §1

[37] = molecular target: Gal(b1-3)GlcNAc(b1-3)Gal(b1-4)GlcNAc(b1-2)Man(a1-3)[Gal(b1-3)GlcNAc(b1-3)Gal(b1-4)GlcNAc(b1-2)Man(a1-6)]Man(b1-4)GlcNAc(b1-4)GlcNAc
Outline: as §1

B1: B936 (Bifidobacterium sp) (protein)
chain: MKNWKKAIALVASAAALVSVAACGPSNAGGSSDSGKKTVGFVAVGPEGGFRTANEKDIQKAFEDAGFDLTYSPTQNNDQQKQIQAFNKFVNDEVDAIILSSTEDSGWDDSLKKAAEAEIPVFTVDRNVDVKDAEAKKAIVAHIGPSNVWCGEQAAEFVNKNFPDGANGFILEGPAGLSVVKDRGTGWGNKVASNVKVLESQSANWSTDEAKTVTAGLLDKYKSDNPQFIFAQNDEMGLGAAQAVDAAGLKGKVKIITIDGTKNALQALVDGDLSYVIEYNPIFGKETAQAVKDYLDGKTVEKDIEIESKTFDAASAKEALDNNTRAY
glycan array binding signal (z-score) [1]: -0.923 | glycan array binding signal (z-score) [2]: 0.178 | glycan array binding signal (z-score) [3]: -0.121 | glycan array binding signal (z-score) [4]: -0.248 | glycan array binding signal (z-score) [5]: -0.894 | glycan array binding signal (z-score) [6]: -0.401 | glycan array binding signal (z-score) [7]: 0.152 | glycan array binding signal (z-score) [8]: -0.369 | glycan array binding signal (z-score) [9]: 1.41 | glycan array binding signal (z-score) [10]: 0.94 | glycan array binding signal (z-score) [11]: 0.366 | glycan array binding signal (z-score) [12]: 2.19 | glycan array binding signal (z-score) [13]: 0.104 | glycan array binding signal (z-score) [14]: -0.136 | glycan array binding signal (z-score) [15]: 0.001 | glycan array binding signal (z-score) [16]: -0.366 | glycan array binding signal (z-score) [17]: 0.891 | glycan array binding signal (z-score) [18]: 11.1 | glycan array binding signal (z-score) [19]: 4.57 | glycan array binding signal (z-score) [20]: 0.324 | glycan array binding signal (z-score) [21]: -0.084 | glycan array binding signal (z-score) [22]: -0.457 | glycan array binding signal (z-score) [23]: -0.187 | glycan array binding signal (z-score) [24]: -0.182 | glycan array binding signal (z-score) [25]: -0.187 | glycan array binding signal (z-score) [26]: 0.44 | glycan array binding signal (z-score) [27]: -0.62 | glycan array binding signal (z-score) [28]: -0.317 | glycan array binding signal (z-score) [29]: 0.248 | glycan array binding signal (z-score) [30]: 0.048 | glycan array binding signal (z-score) [31]: 0.023 | glycan array binding signal (z-score) [32]: 0.045 | glycan array binding signal (z-score) [33]: -0.366 | glycan array binding signal (z-score) [34]: -0.213 | glycan array binding signal (z-score) [35]: 1.71 | glycan array binding signal (z-score) [36]: 4.33 | glycan array binding signal (z-score) [37]: 0.754
